Changes are numbered by the printed parent chain. No constants are given. Whether binding was seen depends on the method and setting. Some binding calls cover weakened binding; strength is not graded here.
How the values were obtained:
[1] = target: T1, FhuCB subcomplex (membrane subunit FhuB and cytosolic ATPase FhuC of the ferrichrome importer), wild type (Escherichia coli) (UniProt P07821+P06972); test: MST; 40 nM FhuCB in detergent, His-tag labelled with red-tris-NTA 2nd generation dye; serial dilution of 30 μM FhuD without substrate; with ATP-Mg; Monolith NT.115pico, 20% LED power, medium MST power; both purified
T1 sequence (chain, red-tris-NTA 2nd generation dye on the His-tag (in the MST experiments)) 1: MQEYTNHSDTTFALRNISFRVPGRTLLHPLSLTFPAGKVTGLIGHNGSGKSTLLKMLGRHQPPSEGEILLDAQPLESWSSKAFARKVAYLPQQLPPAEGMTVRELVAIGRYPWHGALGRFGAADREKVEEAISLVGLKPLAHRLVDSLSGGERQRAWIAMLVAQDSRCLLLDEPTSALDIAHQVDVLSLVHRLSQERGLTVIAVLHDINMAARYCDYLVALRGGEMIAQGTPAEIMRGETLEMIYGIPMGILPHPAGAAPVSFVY
T1 sequence (chain, red-tris-NTA 2nd generation dye on the His-tag (in the MST experiments)) 2: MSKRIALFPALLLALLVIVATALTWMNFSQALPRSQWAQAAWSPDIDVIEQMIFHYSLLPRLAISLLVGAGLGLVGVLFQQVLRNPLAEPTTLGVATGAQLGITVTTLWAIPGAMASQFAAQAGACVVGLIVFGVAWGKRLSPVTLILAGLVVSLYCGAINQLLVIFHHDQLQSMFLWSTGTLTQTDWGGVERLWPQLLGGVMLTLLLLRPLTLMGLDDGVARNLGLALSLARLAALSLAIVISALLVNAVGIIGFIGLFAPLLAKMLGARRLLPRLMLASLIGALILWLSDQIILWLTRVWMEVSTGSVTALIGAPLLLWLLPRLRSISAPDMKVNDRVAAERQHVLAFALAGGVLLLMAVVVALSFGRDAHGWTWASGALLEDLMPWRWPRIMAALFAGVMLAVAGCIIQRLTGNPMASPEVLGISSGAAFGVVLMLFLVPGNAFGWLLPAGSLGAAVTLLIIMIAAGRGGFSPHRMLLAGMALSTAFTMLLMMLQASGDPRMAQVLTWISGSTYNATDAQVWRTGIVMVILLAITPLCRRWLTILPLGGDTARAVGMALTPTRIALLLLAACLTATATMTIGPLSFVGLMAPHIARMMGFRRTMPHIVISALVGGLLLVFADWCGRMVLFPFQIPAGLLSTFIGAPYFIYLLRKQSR

[2] = target: T2, FhuCB subcomplex with FhuB R390 mutated to Ala (Escherichia coli) (UniProt P07821+P06972); test: MST; FhuCB with FhuB mutants in detergent, labelled on the His-tag; FhuD loaded with ferrichrome titrated; whether ATP-Mg was present is not given; both purified
T2 sequence (chain, red-tris-NTA 2nd generation dye on the His-tag) 1: T1 sequence (chain, red-tris-NTA 2nd generation dye on the His-tag (in the MST experiments)) 1
T2 sequence (chain, red-tris-NTA 2nd generation dye on the His-tag) 2: T1 sequence (chain, red-tris-NTA 2nd generation dye on the His-tag (in the MST experiments)) 2 with R390A

[3] = target: T3, FhuCB subcomplex with FhuB Q507 and T510 mutated to Ala (Escherichia coli) (UniProt P07821+P06972); test: as above
T3 sequence (chain, red-tris-NTA 2nd generation dye on the His-tag) 1: T1 sequence (chain, red-tris-NTA 2nd generation dye on the His-tag (in the MST experiments)) 1
T3 sequence (chain, red-tris-NTA 2nd generation dye on the His-tag) 2: T1 sequence (chain, red-tris-NTA 2nd generation dye on the His-tag (in the MST experiments)) 2 with Q507A, T510A

[4] = target: T4, FhuCB subcomplex with FhuB E304 mutated to Ala (Escherichia coli) (UniProt P07821+P06972); test: as above
T4 sequence (chain, red-tris-NTA 2nd generation dye on the His-tag) 1: T1 sequence (chain, red-tris-NTA 2nd generation dye on the His-tag (in the MST experiments)) 1
T4 sequence (chain, red-tris-NTA 2nd generation dye on the His-tag) 2: T1 sequence (chain, red-tris-NTA 2nd generation dye on the His-tag (in the MST experiments)) 2 with E304A

[5] = target: T5, FhuCB subcomplex with FhuB Q636 mutated to Ala (Escherichia coli) (UniProt P07821+P06972); test: as above
T5 sequence (chain, red-tris-NTA 2nd generation dye on the His-tag) 1: T1 sequence (chain, red-tris-NTA 2nd generation dye on the His-tag (in the MST experiments)) 1
T5 sequence (chain, red-tris-NTA 2nd generation dye on the His-tag) 2: T1 sequence (chain, red-tris-NTA 2nd generation dye on the His-tag (in the MST experiments)) 2 with Q636A

[6] = target: T6, FhuCB subcomplex with FhuB S57 mutated to Ala (Escherichia coli) (UniProt P07821+P06972); test: as above
T6 sequence (chain, red-tris-NTA 2nd generation dye on the His-tag) 1: T1 sequence (chain, red-tris-NTA 2nd generation dye on the His-tag (in the MST experiments)) 1
T6 sequence (chain, red-tris-NTA 2nd generation dye on the His-tag) 2: T1 sequence (chain, red-tris-NTA 2nd generation dye on the His-tag (in the MST experiments)) 2 with S57A

[7] = target: T1, FhuCB subcomplex (membrane subunit FhuB and cytosolic ATPase FhuC of the ferrichrome importer), wild type (Escherichia coli); test: MST; 40 nM FhuCB in detergent, His-tag labelled with red-tris-NTA 2nd generation dye; serial dilution of 30 μM FhuD without substrate; without ATP-Mg; Monolith NT.115pico, 20% LED power, medium MST power; both purified
[8] = target: T1, FhuCB subcomplex (membrane subunit FhuB and cytosolic ATPase FhuC of the ferrichrome importer), wild type (Escherichia coli); test: SEC; purified FhuCDB complex at 1 μM incubated with 10 μM ferrichrome and 5 mM ATP-Mg in solution, then gel filtration analysis; both purified
[9] = target: T7, FhuB, membrane subunit of FhuCDB (Escherichia coli) (UniProt P06972); test: cryo-EM structure; purified FhuCDB in LMNG at ~1.2 mg/ml, single-particle cryo-EM, 3.4 Å, inward-open, no substrate bound; both purified
T7 sequence: T1 sequence (chain, red-tris-NTA 2nd generation dye on the His-tag (in the MST experiments)) 2

Measured: binding

B1: FhuD, periplasmic substrate-binding protein, expressed alone (natural protein, Escherichia coli, UniProt P07822 31-296, looked up)
chain: AAIDPNRIVALEWLPVELLLALGIVPYGVADTINYRLWVSEPPLPDSVIDVGLRTEPNLELLTEMKPSFMVWSAGYGPSPEMLARIAPGRGFNFSDGKQPLAMARKSLTEMADLLNLQSAAETHLAQYEDFIRSMKPRFVKRGARPLLLTTLIDPRHMLVFGPNSLFQEILDEYGIPNAWQGETNFWGSTAVSIDRLAAYKDVDVLCFDHDNSKDMDALMATPLWQAMPFVRAGRFQRVPAVWFYGATLSAMHFVRVLDNAIGGKA
notes: the gene was amplified and cloned into pET15b; Used without substrate and loaded with the small molecule ferrichrome (told apart by the assays); also called SBP; ferrichrome-loaded FhuD
binds: [1] | [2] | [3] | [4] | [5] | [6] | [7]

B2: FhuD as co-expressed from the whole FhuCDB operon and held in the purified FhuCDB complex (protein, UniProt P07822 31-296)
chain: B1 chain
binds: [8] | [9]

B3: FhuC, cytosolic ATPase subunit of FhuCDB (protein, UniProt P07821 1-265)
chain: T1 sequence (chain, red-tris-NTA 2nd generation dye on the His-tag (in the MST experiments)) 1
binds: [9]
